Data taken from PubChem BioAssay AID1671190 (National Center for Advancing Translational Sciences (NCATS), 2021).
Several values for one entry are separate records, joined by “and”; a condition that tells them apart may be missing. Equal values may be shown once. Out of some 580,000 compounds screened, about 6,100 (1.1%) were called active. Inconclusive results, whose numbers are uncertain, are shown with a selection of clear calls. The call rests on the fitted dose curve; in most records, active means well fitted inhibition curve with a large enough effect; inconclusive means small, poorly fitted or top-dose-only effect, or another doubt; inactive means no such curve, though single readings can be large or run the other way. Potencies beside an inconclusive call are fits to weak or partial responses and may not hold up.

The chains behind the UniProt entries cited, without tags or fusion partners. Where a name states a change or a piece, a line headed by the entry shows the natural chain unless it says otherwise.
UniProt P18054: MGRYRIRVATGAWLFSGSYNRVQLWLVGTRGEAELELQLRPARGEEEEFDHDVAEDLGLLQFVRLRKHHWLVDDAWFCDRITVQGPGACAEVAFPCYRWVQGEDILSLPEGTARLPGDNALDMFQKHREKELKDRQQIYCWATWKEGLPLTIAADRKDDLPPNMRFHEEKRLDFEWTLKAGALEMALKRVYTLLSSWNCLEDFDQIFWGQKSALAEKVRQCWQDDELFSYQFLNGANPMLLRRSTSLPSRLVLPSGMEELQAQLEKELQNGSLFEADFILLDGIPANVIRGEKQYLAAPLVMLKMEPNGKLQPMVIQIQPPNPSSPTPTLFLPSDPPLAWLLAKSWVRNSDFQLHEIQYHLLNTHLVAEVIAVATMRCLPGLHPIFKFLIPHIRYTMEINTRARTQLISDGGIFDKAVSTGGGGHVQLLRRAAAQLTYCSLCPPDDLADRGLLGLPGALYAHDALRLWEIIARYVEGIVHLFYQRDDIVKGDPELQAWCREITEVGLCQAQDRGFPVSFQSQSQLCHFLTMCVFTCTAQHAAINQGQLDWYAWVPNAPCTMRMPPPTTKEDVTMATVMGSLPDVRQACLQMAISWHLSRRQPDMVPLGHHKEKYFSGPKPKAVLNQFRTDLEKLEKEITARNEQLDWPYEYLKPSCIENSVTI

Biological target: Polyunsaturated fatty acid lipoxygenase ALOX12 (Homo sapiens) (UniProt P18054)
Assay: Primary qHTS assay for inhibitors of human arachidonate 12S-lipoxygenase (ALOX12): Round 2
Conditions: purified 12hLO, xylenol orange hydroperoxide absorbance; activity change, negative = inhibition: at 108 µM (top of the series) unless noted
Procedure, shortened: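 Purified human 12hLO (150 nM final) in 25 mM Hepes, 0.01% Triton X-100, pH 7.0 was preincubated 15 min at room temperature with compound. Then 40 uM arachidonic acid was added, 30 min. Hydroperoxide was read by Fe-XO absorbance ratio 573/405 nm.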
On the % scale 0 is the no-effect control and ±100 the full control effect; potency means the concentration at half of the fitted maximal effect.

Structure (SMILES) | Potency | activity change, negative = inhibition
O=C(N[C@H]1C[C@@H](CO)N(CC2CCCCC2)C1)c1cccnc1 | inconclusive: 7.94 µM [inhibitor, full curve] | –
COC(=O)[C@]1(C)N[C@H](CN(C)C(=O)NC(C)C)[C@@H]2C(=O)N(Cc3ccccc3)C(=O)[C@@H]21 | inconclusive: 126 µM [inhibitor, single point] | –
CC(C)(C)c1ccc(C(=O)N2CCC3(C2)NC(=O)N(Cc2ccc(Cl)cc2)C3=O)cc1 (stereo unspecified) | inconclusive: 28.2 µM [inhibitor, full curve] | –
CN(C)c1ccc(-c2csc(C(C)(O)c3ccc(F)c(F)c3)n2)cc1 (stereo unspecified) | inconclusive: 39.8 µM [inhibitor, partial curve, poor fit] | –
CN1CC(=O)N2C(Cc3c([nH]c4ccccc34)[C@H]2c2ccc3c(c2)OCO3)C1=O (stereo partly specified) | inconclusive: 0.217 µM [inhibitor, full curve] | –
C[C@@H]1CN([C@H](C)CO)C(=O)c2cc(-c3ccc(C#N)cc3)cnc2O[C@H]1CN(C)C(=O)c1ccccc1 | inconclusive: 39.8 µM [inhibitor, partial curve, poor fit] | –
COc1cccc(N2C(=O)CSC23C(=O)N(CC(=O)Nc2cccc(Cl)c2)c2ccccc23)c1 (stereo unspecified) | inconclusive: 56.2 µM [inhibitor, partial curve, poor fit] | –
O=C(CCC1CCCO1)NC1CCCCNC1=O (stereo unspecified) | inactive | –
COc1ccccc1Nc1cc(C)nc(Nc2ccccc2OC)n1 | inconclusive: 35.5 µM [inhibitor, partial curve, poor fit] | –
COc1ccc(N(CC(=O)NC(C)c2ccccc2)S(=O)(=O)c2ccc(C)cc2)cc1 (stereo unspecified) | inconclusive: 112 µM [inhibitor, partial curve, poor fit] | –
COc1ccc2[nH]c(=O)c(CN(C(=O)c3cccnc3)c3cccc(C)c3)cc2c1 | inactive | –
O=C(c1ccc(C(F)(F)F)cc1)N1CCC(=O)N([C@H](COCc2ccc(C(F)(F)F)cc2)Cc2ccccc2)CC1 | inconclusive: 141 µM [inhibitor, single point] | –
CC#CCCC(=O)N1C=Cc2ccccc2C1C#N (stereo unspecified) | inactive | –
CN(C)c1ccc(/C=C/C(=O)c2cc(Cl)ccc2O)cc1 | inactive | –
Cc1nc2cnc(Oc3cccc(Cl)c3)nc2n(C2CC2)c1=O | inconclusive: 31.6 µM [inhibitor, partial curve, poor fit] | –
COC(=O)c1ccccc1NC(=O)Cn1c(SC)c(F)cnc1=O | inconclusive: 56.2 µM [inhibitor, partial curve, poor fit] | –
Nc1cc(N)nc(SCc2cc(=O)oc3cc4c(cc23)CCC4)n1 | inactive | –
COc1cccc(-n2c(-c3ccco3)nc3c(cnn3-c3ccc(Cl)cc3)c2=O)c1 | inconclusive: 50.1 µM [inhibitor, partial curve, poor fit] and inconclusive: 316 nM [inhibitor, full curve, poor fit] | –
CCOC(=O)c1ccc(N2C(=O)c3n[nH]c(-c4cccs4)c3C2c2cccc(OC)c2)cc1 (stereo unspecified) | inactive | –
CC(=O)Nc1cccc(-c2ccnc3c2CC(C)(C(=O)NCCN(C)C)O3)c1 (stereo unspecified) | inactive | –
CCOc1ccc(-n2c(=O)c3c4c(sc3n(CC(=O)NC(C)CC)c2=O)CCC4)cc1 (stereo unspecified) | inactive | –

Structure (SMILES) | Potency | activity change, negative = inhibition
CCC1(C)Cc2c(sc3nc(NC)n(C)c(=O)c23)CO1 (stereo unspecified) | inconclusive: 39.8 µM [inhibitor, partial curve, poor fit] | –
Cc1ccc(SCc2nc(-c3ccc(C(=O)NCCCN4CCOCC4)cc3)oc2C)cc1 | inactive | –
Cc1ccc(S(=O)(=O)N2CCN(C(=O)C3CCN(C(=O)c4ccc(F)cc4)CC3)CC2)c(C)c1 | inconclusive: 39.8 µM [inhibitor, partial curve, poor fit] | –
COc1ccc(-c2nc(C#N)c(NCC(c3cccs3)N3CCOCC3)o2)cc1 (stereo unspecified) | inconclusive: 141 µM [inhibitor, single point] | –
COc1ccc2nc(N3CCCC3)c(C#N)cc2c1 | inconclusive: 0.891 µM [inhibitor, full curve, poor fit] | –
Cc1cccc(C(=O)NC(Nc2ccc(I)cc2)C(Cl)(Cl)Cl)c1 (stereo unspecified) | inconclusive: 44.7 µM [inhibitor, partial curve, poor fit] | –
Cc1nn(CCc2nn[nH]n2)c2nc(C(F)(F)F)cc(C(F)(F)F)c12 | inactive | –
CC(C)NC(=O)C[C@@H]1O[C@H](CNC(=O)NC(C)C)[C@@H](O)[C@H]1O | inconclusive: 31.6 µM [inhibitor, full curve] | –
Cn1c(SCC(=O)c2ccc3c(c2)OCO3)nnc1C1COc2ccccc2O1 (stereo unspecified) | inactive | –
CCOC(=O)c1ccc(NC(=O)NNS(=O)(=O)c2cc(OC)ccc2OC)cc1 | inconclusive: 112 µM [inhibitor, single point] | –
Oc1ccc(C[C@H]2CNC(=S)N2CC2CCCN2C[C@H](Cc2ccc(O)cc2)N2C[C@H](Cc3ccc(O)cc3)N(CC3CCCCC3)C2=S)cc1 (stereo partly specified) | inconclusive: 44.7 µM [inhibitor, partial curve, poor fit] | –
COc1ccc(NC(=O)Cn2nc3c(cc2=O)CCCCC3)cn1 | inactive | –
Cc1cccc(NC(=O)CSc2nc3ccccc3nc2N2CCCC2)c1 | inconclusive: 39.8 µM [inhibitor, single point] | –
CCC1(CC)NC(=O)N(CC(=O)OCC(=O)NC(=O)c2ccccc2OC)C1=O | – | inconclusive: -30.7% [inhibitor]
CC(C)c1noc(C2CCCN(C(=O)Cc3cccc(F)c3)CCC(=O)NCC2)n1 (stereo unspecified) | inactive | –
CCC(CC)C(=O)N1CCc2cc(OC)c(OC)cc2C1COc1ccc(C(=O)OC)cc1 (stereo unspecified) | inactive | –
CCS(=O)(=O)Nc1ccc(C2=NN(C(=O)c3ccco3)C(c3ccc(OC)cc3)C2)cc1 (stereo unspecified) | inactive | –
COc1cc(/C=C(/C#N)c2ccc(C(F)(F)F)cn2)ccc1O | active: 8.91 µM | –
Cc1cccc(N2CCN(C(=O)CCC(=O)NNc3nc4ccccc4c4nc(C)nn34)CC2C)c1 (stereo unspecified) | inactive | –
CC1(C)CC(N2CCN(C(c3ccccc3)c3ccccc3)CC2)=CC(=[N+]2CCCCC2)C1 | inconclusive: 39.8 µM [inhibitor, partial curve, poor fit] | –

2 records drawn at random from the list so far, as already listed:
Structure (SMILES) | Potency | activity change, negative = inhibition
COc1ccccc1Nc1cc(C)nc(Nc2ccccc2OC)n1 | inconclusive: 35.5 µM [inhibitor, partial curve, poor fit] | –
Cn1c(SCC(=O)c2ccc3c(c2)OCO3)nnc1C1COc2ccccc2O1 (stereo unspecified) | inactive | –
